Test results taken from the supplement of paper PMC4604168 (melanoma cell lines).
Some of the results follow. Repeats are few or missing, and single values can be far off.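 Imaging used 1,536-well plates; nuclei positive for cleaved PARP by antibody were divided by total DNA-stained nuclei to yield the apoptosis fraction. Doses for screening kept most cells viable, and cell lines differ markedly in resting and induced cleaved-PARP levels.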

Experiments:
Experiment in all cases: cleaved PARP positive nuclei fraction relative to DMSO control; melanoma cells; higher = more apoptosis
Details in all cases: library dose: low library concentration; 72 h
[1] = system: WM115
[2] = system: WM1716
[3] = system: WM1745
[4] = system: WM3526
[5] = system: WM3619
[6] = system: WM451Lu

| Compound | cleaved PARP positive nuclei fraction [1] | cleaved PARP positive nuclei fraction [2] | cleaved PARP positive nuclei fraction [3] | cleaved PARP positive nuclei fraction [4] | cleaved PARP positive nuclei fraction [5] | cleaved PARP positive nuclei fraction [6] |
| --- | --- | --- | --- | --- | --- | --- |
| CCN(CC)CCNC(=O)c1c(C)[nH]c(/C=C2\C(=O)Nc3ccc(F)cc32)c1C [sunitinib] + N.N.[Cl][Pt][Cl] [cisplatin] (first compound 0.4 µM, partner dose 1.6 µM) | 58.1% | 114% | 97.5% | 121% | 77.4% | 88.3% |
| C[As](C)SC[C@H](NC(=O)CC[C@H](N)C(=O)O)C(=O)NCC(=O)O [Darinaparsin] + Cc1cc([N+](=O)[O-])ccc1NS(=O)(=O)c1cc(Cl)ccc1Cl [FH535] (first compound 0.4 µM, partner dose 1 µM) | 141% | 58.3% | 109% | 152% | 91% | 114% |
| C=CCNC1=C2C[C@@H](C)C[C@H](OC)[C@H](O)[C@@H](C)/C=C(\C)[C@H](OC(N)=O)[C@@H](OC)/C=C\C=C(/C)C(=O)NC(=CC1=O)C2=O [Tanespimycin] + C/C(O)=C(\C#N)C(=O)Nc1cc(Br)ccc1Br [LFM-A13] (first compound 0.002 µM, partner dose 2 µM) | 58.4% | 334% | 83.3% | 79% | 99.2% | 66% |
| Cn1c(Nc2ccc(C(F)(F)F)cc2)nc2cc(Oc3ccnc(-c4ncc(C(F)(F)F)[nH]4)c3)ccc21 + Cc1cc(SCc2sc(-c3ccc(C(F)(F)F)c(F)c3)nc2C)ccc1OCC(=O)O [GW0742] (first compound 0.08 µM, partner dose 2 µM) | 1590% | 220% | 147% | 168% | 112% | 362% |
| C#Cc1cccc(Nc2ncnc3cc(OCCOC)c(OCCOC)cc23)c1 [erlotinib] + C[As](C)SC[C@H](NC(=O)CC[C@H](N)C(=O)O)C(=O)NCC(=O)O [Darinaparsin] (first compound 0.8 µM, partner dose 0.4 µM) | 125% | 146% | 110% | 236% | 101% | 230% |
| O=C(/C=C/c1cccnc1)NCCCCC1CCN(C(=O)c2ccccc2)CC1 + Cc1cc(SCc2sc(-c3ccc(C(F)(F)F)c(F)c3)nc2C)ccc1OCC(=O)O [GW0742] (first compound 0.01 µM, partner dose 2 µM) | 106% | 108% | 92.8% | 66.3% | 101% | 44.5% |
| Cn1cc(C2=C(c3cn(C4CCN(Cc5ccccn5)CC4)c4ccccc34)C(=O)NC2=O)c2ccccc21 [Enzastaurin] + C[C@]12O[C@H](C[C@]1(O)CO)n1c3ccccc3c3c4c(c5c6ccccc6n2c5c31)CNC4=O [Lestaurtinib] (first compound 0.8 µM, partner dose 0.004 µM) | 70.7% | 96.1% | 236% | 46.9% | 91.9% | 255% |
| Cc1cn(-c2cc(NC(=O)c3ccc(C)c(Nc4nccc(-c5cccnc5)n4)c3)cc(C(F)(F)F)c2)cn1 [nilotinib] + C/C(O)=C(\C#N)C(=O)Nc1cc(Br)ccc1Br [LFM-A13] (first compound 0.2 µM, partner dose 2 µM) | 226% | 184% | 87.4% | 53.5% | 86.3% | 88.4% |
| Cn1cnc2c(F)c(Nc3ccc(Br)cc3Cl)c(C(=O)NOCCO)cc21 [selumetinib] + C/C(O)=C(\C#N)C(=O)Nc1cc(Br)ccc1Br [LFM-A13] (first compound 0.015 µM, partner dose 2 µM) | 119% | 90.1% | 94.6% | 252% | 113% | 329% |
| Cn1cc(C2=C(c3cn(C4CCN(Cc5ccccn5)CC4)c4ccccc34)C(=O)NC2=O)c2ccccc21 [Enzastaurin] + O=C(CCCCCCC(=O)Nc1ccccc1)NO [vorinostat] (first compound 0.8 µM, partner dose 0.08 µM) | 123% | 122% | 191% | 124% | 173% | 22.6% |
| CO[C@H]1C[C@@H]2CC[C@@H](C)[C@@](O)(O2)C(=O)C(=O)N2CCCC[C@H]2C(=O)O[C@H]([C@H](C)C[C@@H]2CC[C@@H](OCCO)[C@H](OC)C2)CC(=O)[C@H](C)/C=C(\C)[C@@H](O)[C@@H](OC)C(=O)[C@H](C)C[C@H](C)/C=C/C=C/C=C/1C [everolimus] + C[As](C)SC[C@H](NC(=O)CC[C@H](N)C(=O)O)C(=O)NCC(=O)O [Darinaparsin] (first compound 0.02 µM, partner dose 0.4 µM) | 181% | 51.2% | 114% | 121% | 132% | 61.4% |
| C[As](C)SC[C@H](NC(=O)CC[C@H](N)C(=O)O)C(=O)NCC(=O)O [Darinaparsin] + O=c1cc(-c2cccc3c2Sc2ccccc2S3)oc(N2CCOCC2)c1 [KU55933] (first compound 0.4 µM, partner dose 1 µM) | 106% | 87.8% | 200% | 65.6% | 75.3% | 55% |
| C[C@@H]1CCN(C(=O)CC#N)C[C@@H]1N(C)c1ncnc2[nH]ccc12 + Cc1cc(SCc2sc(-c3ccc(C(F)(F)F)c(F)c3)nc2C)ccc1OCC(=O)O [GW0742] (first compound 1 µM, partner dose 2 µM) | 67.6% | 55.3% | 98.3% | 51.1% | 79.9% | 79.9% |
| Nc1nc(F)nc2c1ncn2[C@@H]1O[C@H](CO)[C@@H](O)[C@@H]1O [fludarabine] + C/C(O)=C(\C#N)C(=O)Nc1cc(Br)ccc1Br [LFM-A13] (first compound 0.2 µM, partner dose 2 µM) | 277% | 125% | 81.4% | 1020% | 72.6% | 516% |
| C[As](C)SC[C@H](NC(=O)CC[C@H](N)C(=O)O)C(=O)NCC(=O)O [Darinaparsin] + Cn1nnc2c(C(N)=O)ncn2c1=O [temozolomide] (first compound 0.4 µM, partner dose 2 µM) | 80% | 59.8% | 76.4% | 58.6% | 96.5% | 130% |
| O=S(=O)(c1ccccc1)N(CC(F)(F)F)c1ccc(C(O)(C(F)(F)F)C(F)(F)F)cc1 + O=C(Oc1ccc([N+](=O)[O-])cc1)N1CCC(C(O)(c2ccc3c(c2)OCO3)c2ccc3c(c2)OCO3)CC1 [JZL184] (first compound 1.4 µM, partner dose 1 µM) | 105% | 96.7% | 108% | 83.6% | 78.3% | 56.7% |
| C[C@]12O[C@H](C[C@]1(O)CO)n1c3ccccc3c3c4c(c5c6ccccc6n2c5c31)CNC4=O [Lestaurtinib] + C[C@@H]1CCN(C(=O)CC#N)C[C@@H]1N(C)c1ncnc2[nH]ccc12 [CP690550] (first compound 0.004 µM, partner dose 1 µM) | 40.3% | 99.1% | 174% | 150% | 89.2% | 74.5% |
| C[C@]12O[C@H](C[C@]1(O)CO)n1c3ccccc3c3c4c(c5c6ccccc6n2c5c31)CNC4=O [Lestaurtinib] + O=S(=O)(c1ccccc1)N(CC(F)(F)F)c1ccc(C(O)(C(F)(F)F)C(F)(F)F)cc1 [T0901317] (first compound 0.004 µM, partner dose 1.4 µM) | 77.9% | 22.3% | 108% | 63.9% | 80.1% | 91.3% |
| Cc1cc(Nc2cc(N3CCN(C)CC3)nc(/C=C/c3ccccc3)n2)n[nH]1 + C[As](C)SC[C@H](NC(=O)CC[C@H](N)C(=O)O)C(=O)NCC(=O)O [Darinaparsin] (first compound 0.04 µM, partner dose 0.4 µM) | 189% | 70.4% | 119% | 139% | 72.5% | 96.6% |
| CC(=O)c1c(C)c2cnc(Nc3ccc(N4CCNCC4)cn3)nc2n(C2CCCC2)c1=O [palbociclib] + C[As](C)SC[C@H](NC(=O)CC[C@H](N)C(=O)O)C(=O)NCC(=O)O [Darinaparsin] (first compound 0.04 µM, partner dose 0.4 µM) | 108% | 164% | 135% | 64.4% | 145% | 52.3% |
| Cc1cc(N2CCOCC2)cc2[nH]c(-c3c(NC[C@@H](O)c4cccc(Cl)c4)cc[nH]c3=O)nc12 + C/C(O)=C(\C#N)C(=O)Nc1cc(Br)ccc1Br [LFM-A13] (first compound 0.2 µM, partner dose 2 µM) | 67.8% | 82.5% | 122% | 127% | 72.6% | 47.8% |
| CC1(C)CCC(c2ccc(Cl)cc2)=C(CN2CCN(c3ccc(C(=O)NS(=O)(=O)c4ccc(N[C@H](CCN5CCOCC5)CSc5ccccc5)c(S(=O)(=O)C(F)(F)F)c4)cc3)CC2)C1 + N.N.[Cl][Pt][Cl] [cisplatin] (first compound 0.4 µM, partner dose 1.6 µM) | 500% | 99.3% | 1050% | 42.3% | 133% | 79.7% |
| N#CC[C@H](C1CCCC1)n1cc(-c2ncnc3[nH]ccc23)cn1 [ruxolitinib] + C[As](C)SC[C@H](NC(=O)CC[C@H](N)C(=O)O)C(=O)NCC(=O)O [Darinaparsin] (first compound 1 µM, partner dose 0.4 µM) | 68.4% | 65.8% | 93.5% | 83.8% | 98% | 101% |
| C[C@]12O[C@H](C[C@]1(O)CO)n1c3ccccc3c3c4c(c5c6ccccc6n2c5c31)CNC4=O [Lestaurtinib] + C=CCNC1=C2C[C@@H](C)C[C@H](OC)[C@H](O)[C@@H](C)/C=C(\C)[C@H](OC(N)=O)[C@@H](OC)/C=C\C=C(/C)C(=O)NC(=CC1=O)C2=O [Tanespimycin] (first compound 0.004 µM, partner dose 0.002 µM) | 19.9% | 115% | 99.2% | 254% | 78.3% | 86% |

Part of the list above, with bars between the fields.
Compound | cleaved PARP positive nuclei fraction [1] | cleaved PARP positive nuclei fraction [2] | cleaved PARP positive nuclei fraction [3] | cleaved PARP positive nuclei fraction [4] | cleaved PARP positive nuclei fraction [5] | cleaved PARP positive nuclei fraction [6]
Cc1cc(N2CCOCC2)cc2[nH]c(-c3c(NC[C@@H](O)c4cccc(Cl)c4)cc[nH]c3=O)nc12 + C/C(O)=C(\C#N)C(=O)Nc1cc(Br)ccc1Br [LFM-A13] (first compound 0.2 µM, partner dose 2 µM) | 67.8% | 82.5% | 122% | 127% | 72.6% | 47.8%
CC1(C)CCC(c2ccc(Cl)cc2)=C(CN2CCN(c3ccc(C(=O)NS(=O)(=O)c4ccc(N[C@H](CCN5CCOCC5)CSc5ccccc5)c(S(=O)(=O)C(F)(F)F)c4)cc3)CC2)C1 + N.N.[Cl][Pt][Cl] [cisplatin] (first compound 0.4 µM, partner dose 1.6 µM) | 500% | 99.3% | 1050% | 42.3% | 133% | 79.7%
